Results are given in words; binding and its absence hold for the method and conditions named. Binding seen in cells or lysates may run through a third protein. Some binding calls cover weakened binding; strength is not graded here.

The chains behind the UniProt entries cited, without tags or fusion partners.
UniProt P54274: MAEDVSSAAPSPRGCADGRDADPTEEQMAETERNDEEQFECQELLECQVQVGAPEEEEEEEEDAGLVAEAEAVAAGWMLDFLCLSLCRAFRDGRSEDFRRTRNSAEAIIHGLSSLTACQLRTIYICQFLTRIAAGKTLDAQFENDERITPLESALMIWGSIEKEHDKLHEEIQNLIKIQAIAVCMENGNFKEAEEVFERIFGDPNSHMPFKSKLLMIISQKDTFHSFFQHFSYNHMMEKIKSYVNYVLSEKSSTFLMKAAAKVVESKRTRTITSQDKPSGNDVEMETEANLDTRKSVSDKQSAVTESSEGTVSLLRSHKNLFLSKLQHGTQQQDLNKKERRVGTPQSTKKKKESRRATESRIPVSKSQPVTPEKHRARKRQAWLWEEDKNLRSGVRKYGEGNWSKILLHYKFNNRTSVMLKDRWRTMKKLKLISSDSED
UniProt P09874: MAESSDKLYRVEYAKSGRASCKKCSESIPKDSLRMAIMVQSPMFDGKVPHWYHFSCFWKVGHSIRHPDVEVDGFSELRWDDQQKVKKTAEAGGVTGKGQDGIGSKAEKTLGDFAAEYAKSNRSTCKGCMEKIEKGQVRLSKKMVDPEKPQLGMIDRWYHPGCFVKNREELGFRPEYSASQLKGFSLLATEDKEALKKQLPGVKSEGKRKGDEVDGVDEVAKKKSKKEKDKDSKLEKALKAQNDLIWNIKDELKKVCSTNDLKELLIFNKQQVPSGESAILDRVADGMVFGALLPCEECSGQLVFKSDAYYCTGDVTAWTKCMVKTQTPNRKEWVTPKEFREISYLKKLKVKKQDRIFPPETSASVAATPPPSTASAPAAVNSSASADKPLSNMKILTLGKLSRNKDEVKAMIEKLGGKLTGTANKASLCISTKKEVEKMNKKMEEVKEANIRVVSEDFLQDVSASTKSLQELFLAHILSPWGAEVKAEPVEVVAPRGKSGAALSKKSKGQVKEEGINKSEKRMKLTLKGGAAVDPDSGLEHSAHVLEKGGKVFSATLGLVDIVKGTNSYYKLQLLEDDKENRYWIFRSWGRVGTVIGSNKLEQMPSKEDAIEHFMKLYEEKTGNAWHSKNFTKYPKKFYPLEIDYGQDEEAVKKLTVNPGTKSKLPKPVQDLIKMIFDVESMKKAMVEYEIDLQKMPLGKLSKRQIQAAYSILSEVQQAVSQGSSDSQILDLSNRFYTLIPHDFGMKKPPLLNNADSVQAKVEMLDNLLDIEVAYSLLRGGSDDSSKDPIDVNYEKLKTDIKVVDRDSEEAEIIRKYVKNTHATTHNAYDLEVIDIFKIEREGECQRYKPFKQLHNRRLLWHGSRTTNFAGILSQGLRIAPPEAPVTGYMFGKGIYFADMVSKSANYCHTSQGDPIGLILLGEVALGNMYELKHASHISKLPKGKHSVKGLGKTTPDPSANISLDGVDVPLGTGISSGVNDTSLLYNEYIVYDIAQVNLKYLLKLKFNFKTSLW

Assay [1] deals with Telomere Repeat Binding Factor 1 (TRF1) (human (endogenous in HeLa)) (UniProt P54274). Description: co-IP.
The target is the same in assay [2]. Kind of assay: proximity ligation.

As to “Poly (ADP-ribose) polymerase 1 (PARP1) (from UniProt P09874 1-1014) (enzyme)”, the binding entry in assay [1] and in assay [2] was “binds” each time.

For the origin of these results see paper doi:10.1101/2021.10.27.466083.
